Record: PubChem BioAssay AID602196 (INSERM, 2012)
In all, the deposit lists about 23,000 reagents; shown is a part drawn at random. 455 of them (2%) were called active. 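Active includes both protection and sensitisation; some change values fall well beyond the stated -50 to +50 range.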 Not all columns of the deposit are shown. The record does not give: the amount of reagent.

Purpose: 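Genes whose knock-down alters cisplatin killing of lung cancer cells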
System: human A549 lung cancer cells
Reagents: siRNA pair against human genes
Duration: 48 h transfection before cisplatin; time from cisplatin to read-out not stated
Challenge: cisplatin at a dose killing half of control-siRNA cells; exact dose and duration not given
Measurement: 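Shift in cisplatin death relative to control siRNA, from -50 (all cells die) to +50 (no cells die); siRNAs harmful on their own scored 0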
Reading the numbers: two-siRNA summed score (-2 to +2): higher = both siRNAs protect from cisplatin killing; -2 means both sensitise
Rule for the call: 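siRNAs harmful alone (LDH or WST-1) get 0; others get +1 for less and -1 for more cisplatin killing; genes are active when the two siRNAs give the same sign, summing to ±2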
Calls: active = both siRNAs shift cisplatin killing the same way; inactive = no consistent shift, or siRNA harmful alone

LOC115749 showed two-siRNA summed score (-2 to +2) = 0; inactive.
Against LOC285777, the values are two-siRNA summed score (-2 to +2) = 0; inactive.
For NSFL1C, the values are two-siRNA summed score (-2 to +2) = 0; inactive.
TP73 gave two-siRNA summed score (-2 to +2) = 0; inactive.
RALGPS1 scored two-siRNA summed score (-2 to +2) = 0; inactive.
Depletion of FBXW4 came out at: two-siRNA summed score (-2 to +2) = 0; inactive.
After knock-down of PACSIN2, the record shows two-siRNA summed score (-2 to +2) = 1; inactive.
LOC127545 showed two-siRNA summed score (-2 to +2) = 0; inactive.
GNAT2 showed two-siRNA summed score (-2 to +2) = 0; inactive.
NPC1L1 showed two-siRNA summed score (-2 to +2) = 0; inactive.
With knock-down of OSBPL6, the screen gave two-siRNA summed score (-2 to +2) = 0; inactive.
LOC441008 showed two-siRNA summed score (-2 to +2) = 0; inactive.
After knock-down of CD69 the results were two-siRNA summed score (-2 to +2) = 0; inactive.
MTPN showed two-siRNA summed score (-2 to +2) = 1; inactive.
Knock-down of AQP7 gave: two-siRNA summed score (-2 to +2) = 0; inactive.
For ALAS2, the values are two-siRNA summed score (-2 to +2) = 1; inactive.
Against PLEK2, the entry reads two-siRNA summed score (-2 to +2) = 0; inactive.
Silencing of SHC1 came out at: two-siRNA summed score (-2 to +2) = 0; inactive.
With knock-down of LOC400571, the screen gave two-siRNA summed score (-2 to +2) = 0; inactive.
RAMP1 gave two-siRNA summed score (-2 to +2) = -1; inactive.
With knock-down of LOC440345, the screen gave two-siRNA summed score (-2 to +2) = 0; inactive.

Entries above whose gene name starts with N or n:
NSFL1C — two-siRNA summed score (-2 to +2): 0; call: inactive
NPC1L1 — two-siRNA summed score (-2 to +2): 0; call: inactive
